Experimental findings from publication PMC4503722, “Novel Phenotypic Outcomes Identified for a Public Collection of Approved Drugs from a Publicly Accessible Panel of Assays” (PLoS ONE, 2015) are described below.

Molecules are shown by their SMILES.

This test relates to nuclear β-catenin in C2C12 cells. Briefly: cells. It is filed as cell-based. The note with it: Mus musculus, C2C12, read-out: Wnt pot. EC50.

In general, EC50 refers to the concentration that produces a half-maximal response.

For the molecule `CCCNCC(O)COc1ccccc1C(=O)CCc1ccccc1` (stereo not shown) [propafenone, reference compound], the EC50 was greater than 10 µM.
